Test results: patent US20220160843A1 (priority 2019, published 2022)
Some results were stated once for a whole list of compounds, not compound by compound.

Test system: P. aeruginosa
Assay: Time-kill assay of GN lysin activity
Type: cell-based, Pseudomonas aeruginosa
Settings: time-kill format; Tables 7 and 8
Experimental: All treatments were incubated at 37° C. with aeration.

| Molecule | CFU decreases by 3 hours after the addition of lysin |
| --- | --- |
| GN54: Modified GN4, N-terminal peptide KRKKRKKRK with linker, SEQ ID NO: 8 (protein) KRKKRKKRKAGAGAGAGAGAGAGAGASMRTSQRGIDLIKSFEGLRLSAYQDSVGVWTIGYGTTRGVTRYMTITVEQAERMLSNDIQRFEPELDRLAKVPLNQNQWDALMSFVYNLGAANLASSTLLKLLNKGDYQGAADQFPRWVNAGGKRLDGLVKRRAAERALFLEPLS | ≥ 3 Log10 |
| GN92: Modified GN4, N-terminal peptide KFFKFFKFFK with linker, SEQ ID NO: 7 (protein) KFFKFFKFFKAGAGAGAGAGAGAGAGASMRTSQRGIDLIKSFEGLRLSAYQDSVGVWTIGYGTTRGVTRYMTITVEQAERMLSNDIQRFEPELDRLAKVPLNQNQWDALMSFVYNLGAANLASSTLLKLLNKGDYQGAADQFPRWVNAGGKRLDGLVKRRAAERALFLEPLS | ≥ 3 Log10 |
| GN94: Modified GN37, N-terminal peptide KFFKFFKFFK with linker, SEQ ID NO: 14 (protein) KFFKFFKFFKAGAGAGAGAGAGAGAGASMTYTLSKRSLDNLKGVHPDLVAVVHRAIQLTPVDFAVIEGLRSVSRQKELVAAGASKTMNSRHLTGHAVDLAAYVNGIRWDWPLYDAIAVAVKAAAKELGVAIVWGGDWTTFKDGPHFELDRSKYR | ≥ 3 Log10 |
| GN121: Modified GN37, C-terminal peptide RKKTRKRLKKIGKVLKWI, SEQ ID NO: 13 (protein) MTYTLSKRSLDNLKGVHPDLVAVVHRAIQLTPVDFAVIEGLRSVSRQKELVAAGASKTMNSRHLTGHAVDLAAYVNGIRWDWPLYDAIAVAVKAAAKELGVAIVWGGDWTTFKDGPHFELDRSKYRRKKTRKRLKKIGKVLKWI | ≥ 3 Log10 |
| GN146: Modified GN4, amino acid substitutions (K99D, R115H), SEQ ID NO: 4 (protein) MRTSQRGIDLIKSFEGLRLSAYQDSVGVWTIGYGTTRGVTRYMTITVEQAERMLSNDIQRFEPELDRLAKVPLNQNQWDALMSFVYNLGAANLASSTLLDLLNKGDYQGAADQFPHWVNAGGKRLDGLVKRRAAERALFLEPLS | ≥ 3 Log10 |
| GN147: Modified GN3, amino acid substitutions (R101D, R117H), SEQ ID NO: 5 (protein) MRTSQRGLSLIKSFEGLRLQAYQDSVGVWTIGYGTTRGVKAGMKISKDQAERMLLNDVQRFEPEVERLIKVPLNQDQWDALMSFTYNLGAANLESSTLRDLLNAGNYAAAAEQFPHWNKAGGQVLAGLTRRRAAERELFLGAA | ≥ 3 Log10 |
